PubChem BioAssay AID686937 – Drosophila RNAi Screening Center | 2013

Purpose: 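Knock-downs that reduce output of a secreted reporter enzyme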 (primary screen)
System: Drosophila S2 cells expressing secreted horseradish peroxidase
Knock-down reagent: long dsRNA against Drosophila genes
Timing: about 5.5 days (5 days dsRNA, then 12 h reporter induction)
Conditions: reporter expression induced after 5 days of dsRNA, read 12 h later; inducer not stated
Measured: 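After 5 days of dsRNA and 12 h of reporter induction, medium peroxidase read by chemiluminescence and scored as per-plate z-score; higher values mean more reporter released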
Scale: z-score: higher = more reporter secreted into medium
The screen tested about 23,000 reagents; shown is a random part of those with a known target gene and a result. 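Reduced-secretion tags in replicate 1 do not always agree with the z-scores; no criterion for assigning the tags was given.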 Reagents against one gene are numbered here. A plus sign joins genes that one reagent is predicted to hit. No sequences are given here. The record does not give: the amount of reagent.

gene	reagent no.	z-score, replicate 1	z-score, replicate 2	z-score, replicate 3	z-score, replicate 4	phenotype, replicate 1
psidin (phagocyte signaling impaired)	1	0.3	0.04			
CG11158	1	0.08	-0.16			
neur + asRNA:CR31429	1	0.45	0.34			
Ptr (Patched-related)	1	0.18	0.41			
Ptr (Patched-related)	2	0.42	-0.47			
Golgin84 (Golgin-84)	1	0.14	0.14			
Tmx3 (Thioredoxin-related transmembrane protein 3)	1	0.15	0.44			
SPARC (Secreted protein, acidic, cysteine-rich)	1	0.36	0.16			
Gs1 (Glutamine synthetase 1)	1	0.26	-0.25			
gpp (grappa)	1	0.31	-0.48			
gpp (grappa)	2	0.64	0.74			
CG17193	1	0.43	0.24			
E(spl)m6-BFM (Enhancer of split m6, Bearded family member)	1	0.19	0.31			
Clamp (Chromatin-linked adaptor for MSL proteins)	1	0.21	0.6			
Clamp (Chromatin-linked adaptor for MSL proteins)	2	-1.17	0.65			
CG14459	1	-5	-3.87			reduced secretion
CG9281	1	0.2	0.39			
CG14354	1	0.33	0.17			
CG9674	1	0.36	0.37			
CG9674	2	0.09	0.13			
Gr43a (Gustatory receptor 43a)	1	0.29	0.22			
Hand	1	-0.08	0.14			
PpD6 (Protein phosphatase D6)	1	0.03	0.2			
CG43193 (retired record)	1	0.24	-2.66			
cathD (cathepsin D)	1	0.28	0.22			
CROT (Carnitine O-octanoyltransferase)	1	-0.39	-0.24			
CROT (Carnitine O-octanoyltransferase)	2	-0.15	-0.1			
NijA (Ninjurin A)	1	-0.04	0.46			

Ordered by “z-score, replicate 2” (low to high): some entries from above.
gene	reagent no.	z-score, replicate 1	z-score, replicate 2	z-score, replicate 3	z-score, replicate 4	phenotype, replicate 1
CG14459	1	-5	-3.87			reduced secretion
CG9674	2	0.09	0.13			
CG14354	1	0.33	0.17			
Gr43a (Gustatory receptor 43a)	1	0.29	0.22			
CG17193	1	0.43	0.24			
E(spl)m6-BFM (Enhancer of split m6, Bearded family member)	1	0.19	0.31			
CG9674	1	0.36	0.37			
CG9281	1	0.2	0.39			
Clamp (Chromatin-linked adaptor for MSL proteins)	1	0.21	0.6			
Clamp (Chromatin-linked adaptor for MSL proteins)	2	-1.17	0.65			
gpp (grappa)	2	0.64	0.74			

The listing continues:
gene	reagent no.	z-score, replicate 1	z-score, replicate 2	z-score, replicate 3	z-score, replicate 4	phenotype, replicate 1
MESK2 + CG10494	1	0.2	0.01			
Hsl (Hormone-sensitive lipase)	1	0.16	0.07			
CG16868	1	0.04	0.2			
CG12164	1	0.14	0.23			
CG12164	2	-0.48	-0.56			
pncr003:2L (retired record)	1	-0.73	1.07			
CG8997	1	0.03	0.21			
pen-2 (presenilin enhancer)	1	0.82	0.35			
naz (nazgul)	1	0.17	0.38			
naz (nazgul)	2	0.49	0.55			
CG16739	1	0.46	0.16			
CG15548	1	0.2	0.52			
CG44153	1	0.21	0.35			
CG44153	2	0.23	0.36			
CG44153	3	-0.03	-0.06			
CG44153	4	-0.08	0.12			
CG44153	5	-0.02	0.12			
CG44153	6	0.59	0.32			
CG44153	7	0.31	0.21			
scb (scab)	1	0.29	0.08			
scb (scab)	2	0.35	0.34			
CG4598	1	0.24	0.1			
CAH8 (Carbonic anhydrase 8)	1	0.26	0.17			
kairos	1	0.32	-0.04			
CG15169	1	0.2	0.14			
Cyp6a15Psi (pseudo)	1	0.15	0.1			
CR18228 (pseudo)	1	0.48	0.52			
mtg (mind the gap)	1	0.24	0.47			
CG43063	1	0.37	0.37			
CG31343	1	0.35	-0.04			
Uba5 (Ubiquitin-like activating enzyme 5)	1	0.35	0.41			
CG15221	1	0.35	0.29			
Cyp6d4 (Cytochrome P450 6d4)	1	0.23	0.31			
CG13931	1	0.42	0.34			
Etfb (Electron transfer flavoprotein beta subunit)	1	0.21	0.33			
CG7685	1	0.29	-0.03			
mmm (missing minor mitochondria)	1	0.47	0.4			
bab1 (bric a brac 1)	1	0.51	0.8	0.57	0.49	
bab1 (bric a brac 1)	2	0.65	0.29			
bab1 (bric a brac 1)	3	-0.52	0.32			
Gr22c (Gustatory receptor 22c)	1	0.19	-0.29			
Wdr59 (WD repeat domain 59)	1	0.4	0.43			
M6	1	0.08	0.22			
CG8607	1	-0.04	0.31			
CG3902	1	0.51	0.62			
Gr59f (Gustatory receptor 59f)	1	0.23	0.26			
mRpS21 (mitochondrial ribosomal protein S21)	1	-0.58	0.24			
mRpS21 (mitochondrial ribosomal protein S21)	2	-1.59	-1.14			reduced secretion
laf (labial associated factor)	1	-0.05	0.43			
CG15611	1	0.5	0.43			
CG15611	2	0.38	0.31			
CG5532	1	0.6	-0.24			
Jig	1	0.15	0.86			
CrebA (Cyclic-AMP response element binding protein A)	1	0.02	0.24			
